Measurements published in paper doi:10.1101/2023.04.19.537449.
Results are given in words; binding and its absence hold for the method and conditions named. In cells and extracts the contact can be indirect. Some binding calls cover weakened binding; strength is not graded here. Tags and fused reporters may be left off the sequences shown.

Chains of the proteins cited; added tags and fusions are not shown.
UniProt P46937: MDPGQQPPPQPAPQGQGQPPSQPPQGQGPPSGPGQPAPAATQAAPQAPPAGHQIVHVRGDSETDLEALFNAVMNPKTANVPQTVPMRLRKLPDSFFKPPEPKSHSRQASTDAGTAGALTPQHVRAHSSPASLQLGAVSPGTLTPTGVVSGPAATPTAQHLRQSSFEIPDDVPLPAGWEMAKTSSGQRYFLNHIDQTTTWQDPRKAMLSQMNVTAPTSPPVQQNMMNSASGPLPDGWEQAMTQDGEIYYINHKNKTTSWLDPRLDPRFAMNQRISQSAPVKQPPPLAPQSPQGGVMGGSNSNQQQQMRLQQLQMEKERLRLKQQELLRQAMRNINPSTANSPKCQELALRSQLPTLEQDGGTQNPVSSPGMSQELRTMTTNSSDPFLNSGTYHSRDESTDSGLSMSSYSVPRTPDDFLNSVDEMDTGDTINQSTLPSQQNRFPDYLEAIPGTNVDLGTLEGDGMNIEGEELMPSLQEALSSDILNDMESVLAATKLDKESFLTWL

Target: T1, FLAG-tagged wild type AMOTL2 (Angiomotin-like 2) (UniProt Q9Y2J4)
T1 sequence: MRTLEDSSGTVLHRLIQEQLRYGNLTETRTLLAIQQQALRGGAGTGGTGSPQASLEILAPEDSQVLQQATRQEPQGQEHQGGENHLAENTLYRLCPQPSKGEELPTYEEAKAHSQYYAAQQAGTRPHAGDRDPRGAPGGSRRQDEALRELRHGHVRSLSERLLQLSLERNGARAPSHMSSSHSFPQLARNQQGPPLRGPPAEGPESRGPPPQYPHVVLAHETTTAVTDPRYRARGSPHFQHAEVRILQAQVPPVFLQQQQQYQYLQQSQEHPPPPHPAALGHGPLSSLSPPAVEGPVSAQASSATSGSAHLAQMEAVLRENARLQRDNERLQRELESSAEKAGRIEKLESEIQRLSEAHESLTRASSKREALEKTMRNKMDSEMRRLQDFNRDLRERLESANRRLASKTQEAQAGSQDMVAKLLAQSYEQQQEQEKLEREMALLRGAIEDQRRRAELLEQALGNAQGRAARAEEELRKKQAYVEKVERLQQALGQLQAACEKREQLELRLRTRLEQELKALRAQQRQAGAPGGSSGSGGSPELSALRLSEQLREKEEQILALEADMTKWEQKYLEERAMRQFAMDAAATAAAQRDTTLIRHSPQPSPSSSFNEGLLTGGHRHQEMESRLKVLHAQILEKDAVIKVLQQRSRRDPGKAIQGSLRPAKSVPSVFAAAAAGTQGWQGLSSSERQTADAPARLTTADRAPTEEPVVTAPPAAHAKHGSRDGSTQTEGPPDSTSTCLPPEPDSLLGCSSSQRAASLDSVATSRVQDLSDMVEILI
Assay: co-IP; HEK293T cells at high cell density co-expressing FLAG-AMOTL2 forms and HA-YAP; 1 mg lysate (RIPA or nondenaturing lysis buffer: 20 mM Tris, 137 mM NaCl, 0.5% NP-40) with anti-FLAG M2 magnetic beads overnight at 4°C; eluted with FLAG peptide; anti-HA blot

With “HA-tagged YAP (Yes-associated protein 1) (from UniProt P46937 1-504)” the binding was “binds”.
